Patent US20230089605A1, “USE OF DOXYCYCLINE, RESVERATROL, IVERMECTIN, AND RELATED CHEMICALLY MODIFIED COMPOUNDS TO TREAT OR PREVENT VIRAL INFECTIONS” (Ardestat Biologics, LLC, priority 2021, published 2023)
At least one structure is not confirmed: it was looked up by name or label, or the drawing left a doubt.

Sequences of proteins named here, by UniProt entry; tags and fusion partners are left off. Residues count along the entry.
UniProt P14780, 107-444 limits assumed: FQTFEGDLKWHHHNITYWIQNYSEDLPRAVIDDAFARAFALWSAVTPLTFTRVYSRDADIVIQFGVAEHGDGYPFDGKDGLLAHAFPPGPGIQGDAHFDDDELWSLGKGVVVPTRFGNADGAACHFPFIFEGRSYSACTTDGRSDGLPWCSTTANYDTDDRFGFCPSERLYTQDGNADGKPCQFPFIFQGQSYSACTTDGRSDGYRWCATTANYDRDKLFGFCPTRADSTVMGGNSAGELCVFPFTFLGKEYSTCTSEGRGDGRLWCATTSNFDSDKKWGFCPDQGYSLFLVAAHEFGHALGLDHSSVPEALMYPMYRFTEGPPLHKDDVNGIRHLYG

Target: T1, MMP9 (Homo sapiens, UniProt P14780)
T1 construct: purchased Abcam ab139449
Assay: MMP9 inhibitor screening assay kit (Fluorometric), Abcam
Assay type: biochemical
Settings: fluorogenic peptide unquenching monitored 10 minutes; FIG. 2; result given in words only
Protocol: Doxycycline, resveratrol, colchicine, and ivermectin were assessed at the indicated concentrations using the MMP9 Inhibitor Screening Assay Kit (abcam), according to the manufacturer's instructions.
Inhibition of MMP9 was determined using the MMP9 inhibitor screening assay kit (Fluorometric) from Abcam (Cat#ab139449) according to the manufacturer's instructions. Unquenching of a fluorogenic peptide by MMP9 was monitored for 10 minutes in the presence or absence of inhibitory compounds, using a fluorescent microplate reader (Ex/Em=328/420). Reaction velocity (V) in RFU/minute was used to determine the % of remaining enzymatic activity, relative to untreated control, according to the following equation: (Vinhibitor/Vcontrol)×100 (FIG. 2).

`C[C@H]1c2cccc(O)c2C(=O)C2=C(O)[C@]3(O)C(=O)C(C(N)=O)=C(O)[C@@H](N(C)C)[C@@H]3[C@@H](O)[C@@H]21` [doxycycline] was tested, and the “inhibition of MMP activity (% of remaining enzymatic activity relative to untreated control)” value was “clear inhibitory effects of MMP activity”.
